According to paper doi:10.1101/2024.10.17.618965:
Like-named read-outs stand apart in the source and are kept apart here. These are yes or no findings as the source states them, for the method shown. In cells and extracts the contact can be indirect. Some binding calls cover weakened binding; strength is not graded here. For some of these results: Tags and fused reporters may be left off the sequences shown.

T1: Tight junction protein ZO-2, endogenous in MDCK cells (dog (endogenous in MDCK)) (UniProt Q95168)
T1 sequence: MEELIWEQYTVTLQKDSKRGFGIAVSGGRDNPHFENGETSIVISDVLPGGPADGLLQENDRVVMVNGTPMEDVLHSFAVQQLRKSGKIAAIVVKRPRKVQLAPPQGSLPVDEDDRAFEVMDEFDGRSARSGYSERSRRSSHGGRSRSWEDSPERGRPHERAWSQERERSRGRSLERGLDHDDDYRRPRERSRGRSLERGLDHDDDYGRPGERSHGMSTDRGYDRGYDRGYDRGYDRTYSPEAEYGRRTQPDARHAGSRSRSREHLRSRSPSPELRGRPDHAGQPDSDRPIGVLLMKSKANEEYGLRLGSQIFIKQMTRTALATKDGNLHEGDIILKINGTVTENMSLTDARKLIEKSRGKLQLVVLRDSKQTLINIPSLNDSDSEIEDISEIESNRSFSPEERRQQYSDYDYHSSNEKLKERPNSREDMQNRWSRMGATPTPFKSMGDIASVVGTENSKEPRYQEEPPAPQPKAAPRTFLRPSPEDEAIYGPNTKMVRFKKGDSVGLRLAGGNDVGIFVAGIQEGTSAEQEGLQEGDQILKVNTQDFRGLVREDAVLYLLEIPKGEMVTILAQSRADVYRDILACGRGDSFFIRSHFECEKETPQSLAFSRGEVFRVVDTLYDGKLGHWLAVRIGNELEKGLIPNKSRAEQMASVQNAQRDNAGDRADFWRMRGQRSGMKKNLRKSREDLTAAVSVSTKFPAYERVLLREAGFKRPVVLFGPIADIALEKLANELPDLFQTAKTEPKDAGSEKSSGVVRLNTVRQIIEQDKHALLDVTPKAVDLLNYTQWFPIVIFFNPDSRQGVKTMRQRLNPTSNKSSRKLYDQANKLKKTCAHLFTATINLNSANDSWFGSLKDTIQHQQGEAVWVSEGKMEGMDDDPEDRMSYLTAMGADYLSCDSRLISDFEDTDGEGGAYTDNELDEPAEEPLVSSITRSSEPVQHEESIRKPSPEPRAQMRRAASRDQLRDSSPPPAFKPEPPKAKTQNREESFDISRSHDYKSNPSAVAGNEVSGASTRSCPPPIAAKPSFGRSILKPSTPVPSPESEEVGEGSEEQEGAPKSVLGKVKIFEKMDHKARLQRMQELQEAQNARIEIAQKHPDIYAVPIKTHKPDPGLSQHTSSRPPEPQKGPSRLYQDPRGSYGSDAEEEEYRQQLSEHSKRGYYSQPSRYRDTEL

T2: FLAG-LATS1 (human LATS1 in pXJ40) (human) (UniProt O95835)
T2 sequence: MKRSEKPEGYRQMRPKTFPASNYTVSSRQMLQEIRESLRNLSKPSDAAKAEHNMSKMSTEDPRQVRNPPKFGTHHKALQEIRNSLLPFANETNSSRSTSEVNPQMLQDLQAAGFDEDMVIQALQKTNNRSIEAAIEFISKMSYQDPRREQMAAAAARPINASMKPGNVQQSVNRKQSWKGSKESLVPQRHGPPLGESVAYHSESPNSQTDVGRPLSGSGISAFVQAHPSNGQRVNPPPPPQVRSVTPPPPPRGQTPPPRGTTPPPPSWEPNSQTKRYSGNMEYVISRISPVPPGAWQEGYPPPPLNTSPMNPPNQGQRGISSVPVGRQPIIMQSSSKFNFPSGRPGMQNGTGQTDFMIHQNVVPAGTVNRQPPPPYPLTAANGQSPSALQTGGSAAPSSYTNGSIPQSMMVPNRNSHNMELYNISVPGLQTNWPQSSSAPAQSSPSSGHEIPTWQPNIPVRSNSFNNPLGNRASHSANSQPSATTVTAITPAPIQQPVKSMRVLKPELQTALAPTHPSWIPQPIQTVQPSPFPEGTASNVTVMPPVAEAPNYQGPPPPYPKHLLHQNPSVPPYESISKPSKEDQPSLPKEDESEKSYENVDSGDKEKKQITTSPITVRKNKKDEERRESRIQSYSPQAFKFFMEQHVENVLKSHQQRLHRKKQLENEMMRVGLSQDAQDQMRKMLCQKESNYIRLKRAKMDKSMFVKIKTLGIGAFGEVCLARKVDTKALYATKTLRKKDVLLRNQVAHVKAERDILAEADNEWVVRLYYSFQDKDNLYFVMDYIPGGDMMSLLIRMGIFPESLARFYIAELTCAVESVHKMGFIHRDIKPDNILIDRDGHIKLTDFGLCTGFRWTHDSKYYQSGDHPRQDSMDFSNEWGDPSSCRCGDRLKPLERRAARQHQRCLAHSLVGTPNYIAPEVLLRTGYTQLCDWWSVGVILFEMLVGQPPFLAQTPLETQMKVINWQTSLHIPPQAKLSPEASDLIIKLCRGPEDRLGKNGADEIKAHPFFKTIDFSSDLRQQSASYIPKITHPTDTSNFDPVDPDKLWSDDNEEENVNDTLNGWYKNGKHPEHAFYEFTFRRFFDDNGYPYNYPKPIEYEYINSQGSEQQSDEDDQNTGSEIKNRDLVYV


Legend:
Experiment in all cases: co-IP
[1] = biological target: T1, Tight junction protein ZO-2, endogenous in MDCK cells (dog (endogenous in MDCK))
[2] = biological target: T1, Tight junction protein ZO-2, endogenous in MDCK cells (dog (endogenous in MDCK)); remark: listed apart in the source
[3] = biological target: T2, FLAG-LATS1 (human LATS1 in pXJ40) (human)
[4] = biological target: FLAG-YAP (human YAP1-2γ in pXJ40) (human) (UniProt P46937)

| Molecule | binding [1] | binding [2] | binding [3] | binding [4] |
| --- | --- | --- | --- | --- |
| Yes-associated protein YAP, endogenous in MDCK cells (from UniProt A0A8C0NGY6 1-506) | binds | binds | – | – |
| full-length HA-ZO-2 (human ZO-2 in pXJ40) (protein, UniProt Q9UDY2 1-1190) MPVRGDRGFPPRRELSGWLRAPGMEELIWEQYTVTLQKDSKRGFGIAVSGGRDNPHFENGETSIVISDVLPGGPADGLLQENDRVVMVNGTPMEDVLHSFAVQQLRKSGKVAAIVVKRPRKVQVAALQASPPLDQDDRAFEVMDEFDGRSFRSGYSERSRLNSHGGRSRSWEDSPERGRPHERARSRERDLSRDRSRGRSLERGLDQDHARTRDRSRGRSLERGLDHDFGPSRDRDRDRSRGRSIDQDYERAYHRAYDPDYERAYSPEYRRGARHDARSRGPRSRSREHPHSRSPSPEPRGRPGPIGVLLMKSRANEEYGLRLGSQIFVKEMTRTGLATKDGNLHEGDIILKINGTVTENMSLTDARKLIEKSRGKLQLVVLRDSQQTLINIPSLNDSDSEIEDISEIESNRSFSPEERRHQYSDYDYHSSSEKLKERPSSREDTPSRLSRMGATPTPFKSTGDIAGTVVPETNKEPRYQEDPPAPQPKAAPRTFLRPSPEDEAIYGPNTKMVRFKKGDSVGLRLAGGNDVGIFVAGIQEGTSAEQEGLQEGDQILKVNTQDFRGLVREDAVLYLLEIPKGEMVTILAQSRADVYRDILACGRGDSFFIRSHFECEKETPQSLAFTRGEVFRVVDTLYDGKLGNWLAVRIGNELEKGLIPNKSRAEQMASVQNAQRDNAGDRADFWRMRGQRSGVKKNLRKSREDLTAVVSVSTKFPAYERVLLREAGFKRPVVLFGPIADIAMEKLANELPDWFQTAKTEPKDAGSEKSTGVVRLNTVRQIIEQDKHALLDVTPKAVDLLNYTQWFPIVIFFNPDSRQGVKTMRQRLNPTSNKSSRKLFDQANKLKKTCAHLFTATINLNSANDSWFGSLKDTIQHQQGEAVWVSEGKMEGMDDDPEDRMSYLTAMGADYLSCDSRLISDFEDTDGEGGAYTDNELDEPAEEPLVSSITRSSEPVQHEESIRKPSPEPRAQMRRAASSDQLRDNSPPPAFKPEPPKAKTQNKEESYDFSKSYEYKSNPSAVAGNETPGASTKGYPPPVAAKPTFGRSILKPSTPIPPQEGEEVGESSEEQDNAPKSVLGKVKIFEKMDHKARLQRMQELQEAQNARIEIAQKHPDIYAVPIKTHKPDPGTPQHTSSRPPEPQKAPSRPYQDTRGSYGSDAEEEEYRQQLSEHSKRGYYGQSARYRDTEL | – | – | binds | binds |
